# Measurements reported in the supplement of paper PMC8728848.
# Some of the results follow.
# B1: BIp1-His (Cryptococcus neoformans) (protein)
# chain: MFTKIFVALFAATAVLSAPVESAEKRITHTGRATFYSPSVGIGACGWQNTDEELVVALNAPQYALNADHNCGQSVRITNEQNGNQEIAKVVDLCPGCNDGDLDMSPALFGALNNNDFDQGVFPISWNFLPRDDTSSSN
# Legend:
# Experiment in all cases: glycan array binding signal (z-score within array); higher = stronger binding
# Conditions in all cases: glycan notation: IUPAC condensed, linker removed
# [1] = biological target: Gal(b1-4)GlcNAc(b1-3)Gal(b1-4)GlcNAc(b1-3)[Gal(b1-4)GlcNAc(b1-3)Gal(b1-4)GlcNAc(b1-6)]GalNAc
# Procedure, shortened: (§1)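 From the Consortium for Functional Glycomics database, 3228 arrays were curated, keeping only those whose protein sequence was available. Binding is given as a within-array Z-score averaged across arrays sharing a protein sequence and across linkers. Negative Z-scores can be read as non-binding.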
# [2] = biological target: Gal(b1-4)GlcNAc(b1-3)Gal(b1-4)GlcNAc(b1-6)[Gal(b1-3)]GalNAc
# Procedure, shortened: as §1
# [3] = biological target: Gal(b1-4)GlcNAc(b1-3)Gal(b1-4)[Fuc(a1-3)]GlcNAc(b1-3)Gal(b1-4)[Fuc(a1-3)]GlcNAc
# Procedure, shortened: as §1
# [4] = biological target: Gal(b1-4)GlcNAc(b1-3)GalNAc
# Procedure, shortened: as §1
# [5] = biological target: Gal(b1-4)GlcNAc(b1-3)[Fuc(a1-3)GlcNAc(b1-6)]Gal(b1-4)Glc
# Procedure, shortened: as §1
# [6] = biological target: Gal(b1-4)GlcNAc(b1-3)[Gal(b1-4)GlcNAc(b1-6)]Gal(b1-4)GlcNAc
# Procedure, shortened: as §1
# [7] = biological target: Gal(b1-4)GlcNAc(b1-3)[GlcNAc(b1-6)]Gal(b1-4)GlcNAc
# Procedure, shortened: as §1
# [8] = biological target: Gal(b1-4)GlcNAc(b1-6)Gal(b1-4)GlcNAc
# Procedure, shortened: as §1
# [9] = biological target: Gal(b1-4)GlcNAc(b1-6)GalNAc
# Procedure, shortened: as §1
# [10] = biological target: Gal(b1-4)GlcNAc(b1-6)[Gal(b1-3)]GalNAc
# Procedure, shortened: as §1
# [11] = biological target: Gal(b1-4)GlcNAc(b1-6)[Gal(b1-4)GlcNAc(b1-3)]GalNAc
# Procedure, shortened: as §1
# Gal(b1-4)GlcNAc6P = biological target: Gal(b1-4)GlcNAc6P
# Procedure, shortened: as §1
# Gal(b1-6)Gal = biological target: Gal(b1-6)Gal
# Procedure, shortened: as §1
# Gal3S(b1-3)GalNAc = biological target: Gal3S(b1-3)GalNAc
# Procedure, shortened: as §1
# Gal3S(b1-3)GlcNAc = biological target: Gal3S(b1-3)GlcNAc
# Procedure, shortened: as §1
# [12] = biological target: Gal3S(b1-3)[Fuc(a1-4)]GlcNAc
# Procedure, shortened: as §1
# Gal3S(b1-4)Glc = biological target: Gal3S(b1-4)Glc
# Procedure, shortened: as §1
# Gal3S(b1-4)Glc6S = biological target: Gal3S(b1-4)Glc6S
# Procedure, shortened: as §1
# Gal3S(b1-4)GlcNAc = biological target: Gal3S(b1-4)GlcNAc
# Procedure, shortened: as §1
# [13] = biological target: Gal3S(b1-4)[Fuc(a1-3)]Glc6S
# Procedure, shortened: as §1
# [14] = biological target: Gal3S(b1-4)[Fuc(a1-3)]GlcNAc
# Procedure, shortened: as §1
# [15] = biological target: Gal3S(b1-4)[Fuc(a1-3)]GlcNAc6S
# Procedure, shortened: as §1
# Gal3S4S(b1-4)GlcNAc = biological target: Gal3S4S(b1-4)GlcNAc
# Procedure, shortened: as §1
# Gal3S6S(b1-4)GlcNAc = biological target: Gal3S6S(b1-4)GlcNAc
# Procedure, shortened: as §1
# Gal3S6S(b1-4)GlcNAc6S = biological target: Gal3S6S(b1-4)GlcNAc6S
# Procedure, shortened: as §1
# Gal4S(b1-4)GlcNAc = biological target: Gal4S(b1-4)GlcNAc
# Procedure, shortened: as §1
# Gal4S6S(b1-4)GlcNAc = biological target: Gal4S6S(b1-4)GlcNAc
# Procedure, shortened: as §1
# Gal6P(b1-4)GlcNAc = biological target: Gal6P(b1-4)GlcNAc
# Procedure, shortened: as §1
# Gal6S(b1-3)GlcNAc = biological target: Gal6S(b1-3)GlcNAc
# Procedure, shortened: as §1
# Gal6S(b1-3)GlcNAc6S = biological target: Gal6S(b1-3)GlcNAc6S
# Procedure, shortened: as §1
# Gal6S(b1-4)Glc = biological target: Gal6S(b1-4)Glc
# Procedure, shortened: as §1
# Gal6S(b1-4)Glc6S = biological target: Gal6S(b1-4)Glc6S
# Procedure, shortened: as §1
# Gal6S(b1-4)GlcNAc = biological target: Gal6S(b1-4)GlcNAc
# Procedure, shortened: as §1
# Gal6S(b1-4)GlcNAc6S = biological target: Gal6S(b1-4)GlcNAc6S
# Procedure, shortened: as §1
# GalNAc(a1-3)Gal = biological target: GalNAc(a1-3)Gal
# Procedure, shortened: as §1
# GalNAc(a1-3)GalNAc = biological target: GalNAc(a1-3)GalNAc
# Procedure, shortened: as §1
# [16] = biological target: GalNAc(a1-3)GalNAc(b1-3)Gal(a1-4)Gal(b1-4)Glc
# Procedure, shortened: as §1
# [17] = biological target: GalNAc(a1-3)GalNAc(b1-3)Gal(a1-4)Gal(b1-4)GlcNAc
# Procedure, shortened: as §1
# GalNAc(b1-3)Gal = biological target: GalNAc(b1-3)Gal
# Procedure, shortened: as §1
# [18] = biological target: GalNAc(b1-3)Gal(a1-4)Gal(b1-4)GlcNAc
# Procedure, shortened: as §1
# [19] = biological target: GalNAc(b1-3)Gal(a1-4)Gal(b1-4)GlcNAc(b1-3)Gal(b1-4)Glc
# Procedure, shortened: as §1
# [20] = biological target: GalNAc(b1-3)Gal(a1-6)Gal(b1-4)Glc
# Procedure, shortened: as §1
# GalNAc(b1-3)GalNAc = biological target: GalNAc(b1-3)GalNAc
# Procedure, shortened: as §1
# GalNAc(b1-3)GlcNAc = biological target: GalNAc(b1-3)GlcNAc
# Procedure, shortened: as §1
# GalNAc(b1-4)Gal(b1-4)Glc = biological target: GalNAc(b1-4)Gal(b1-4)Glc
# Procedure, shortened: as §1
binder,measurement,setting,value
B1,glycan array binding signal (z-score),[1],1.63
same,glycan array binding signal (z-score),[2],0.351
same,glycan array binding signal (z-score),[3],-0.074
same,glycan array binding signal (z-score),[4],-0.463
same,glycan array binding signal (z-score),[5],1.66
same,glycan array binding signal (z-score),[6],-0.131
same,glycan array binding signal (z-score),[7],-0.866
same,glycan array binding signal (z-score),[8],-0.089
same,glycan array binding signal (z-score),[9],0.303
same,glycan array binding signal (z-score),[10],-0.481
same,glycan array binding signal (z-score),[11],0.499
same,glycan array binding signal (z-score),Gal(b1-4)GlcNAc6P,0.46
same,glycan array binding signal (z-score),Gal(b1-6)Gal,-0.497
same,glycan array binding signal (z-score),Gal3S(b1-3)GalNAc,0.365
same,glycan array binding signal (z-score),Gal3S(b1-3)GlcNAc,-0.073
same,glycan array binding signal (z-score),[12],0.468
same,glycan array binding signal (z-score),Gal3S(b1-4)Glc,-0.094
same,glycan array binding signal (z-score),Gal3S(b1-4)Glc6S,0.642
same,glycan array binding signal (z-score),Gal3S(b1-4)GlcNAc,0.425
same,glycan array binding signal (z-score),[13],1.75
same,glycan array binding signal (z-score),[14],-0.128
same,glycan array binding signal (z-score),[15],1.26
same,glycan array binding signal (z-score),Gal3S4S(b1-4)GlcNAc,0.045
same,glycan array binding signal (z-score),Gal3S6S(b1-4)GlcNAc,0.853
same,glycan array binding signal (z-score),Gal3S6S(b1-4)GlcNAc6S,1.12
same,glycan array binding signal (z-score),Gal4S(b1-4)GlcNAc,-0.25
same,glycan array binding signal (z-score),Gal4S6S(b1-4)GlcNAc,-0.804
same,glycan array binding signal (z-score),Gal6P(b1-4)GlcNAc,-1.05
same,glycan array binding signal (z-score),Gal6S(b1-3)GlcNAc,-0.386
same,glycan array binding signal (z-score),Gal6S(b1-3)GlcNAc6S,-0.624
same,glycan array binding signal (z-score),Gal6S(b1-4)Glc,-0.039
same,glycan array binding signal (z-score),Gal6S(b1-4)Glc6S,-0.645
same,glycan array binding signal (z-score),Gal6S(b1-4)GlcNAc,0.547
same,glycan array binding signal (z-score),Gal6S(b1-4)GlcNAc6S,0.298
same,glycan array binding signal (z-score),GalNAc(a1-3)Gal,0.043
same,glycan array binding signal (z-score),GalNAc(a1-3)GalNAc,0.617
same,glycan array binding signal (z-score),[16],0.395
same,glycan array binding signal (z-score),[17],-0.181
same,glycan array binding signal (z-score),GalNAc(b1-3)Gal,-0.111
same,glycan array binding signal (z-score),[18],0.069
same,glycan array binding signal (z-score),[19],-0.061
same,glycan array binding signal (z-score),[20],1.26
same,glycan array binding signal (z-score),GalNAc(b1-3)GalNAc,-0.776
same,glycan array binding signal (z-score),GalNAc(b1-3)GlcNAc,-0.399
same,glycan array binding signal (z-score),GalNAc(b1-4)Gal(b1-4)Glc,0.482

# 2 records drawn at random from the list so far:
binder,measurement,setting,value
B1,glycan array binding signal (z-score),[6],-0.131
same,glycan array binding signal (z-score),GalNAc(b1-3)GalNAc,-0.776
